Primary screen of a compound library

Amino acid sequences for entries named in this document (tags omitted).
UniProt E9BF75, entry or part of it: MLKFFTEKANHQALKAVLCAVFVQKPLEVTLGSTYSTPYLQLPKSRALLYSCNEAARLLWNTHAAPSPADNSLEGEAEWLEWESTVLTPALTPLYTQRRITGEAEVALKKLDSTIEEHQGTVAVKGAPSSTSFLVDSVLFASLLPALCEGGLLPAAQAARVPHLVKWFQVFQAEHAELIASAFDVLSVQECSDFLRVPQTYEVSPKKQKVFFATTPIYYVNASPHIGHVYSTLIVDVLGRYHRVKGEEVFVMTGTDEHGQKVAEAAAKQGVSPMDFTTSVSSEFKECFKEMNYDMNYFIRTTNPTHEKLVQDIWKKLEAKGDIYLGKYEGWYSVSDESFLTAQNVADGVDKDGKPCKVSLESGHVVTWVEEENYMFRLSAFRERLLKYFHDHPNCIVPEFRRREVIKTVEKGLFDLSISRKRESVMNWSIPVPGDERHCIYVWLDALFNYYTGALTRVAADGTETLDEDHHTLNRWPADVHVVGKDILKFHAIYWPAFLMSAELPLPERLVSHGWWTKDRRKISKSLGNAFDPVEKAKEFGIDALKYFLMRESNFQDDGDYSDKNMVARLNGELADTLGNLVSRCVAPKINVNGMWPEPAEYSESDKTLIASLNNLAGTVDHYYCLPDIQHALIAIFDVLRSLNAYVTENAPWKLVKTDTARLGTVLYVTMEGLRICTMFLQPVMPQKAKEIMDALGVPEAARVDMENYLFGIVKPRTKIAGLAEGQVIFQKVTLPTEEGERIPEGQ

All values are in %.
The record does not define 0% and 100%; most values in the screen are far below 50% and negative numbers occur (in some assays of this library far below -100).
The compounds are a random part of those screened.
A dash means the value is not listed here; it may have been measured.

LdMetRS: 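Primary screen of methionyl-tRNA synthetase; the read-out is not stated. Target: Methionyl-tRNA synthetase (putative), Leishmania donovani (UniProt E9BF75). The test concentration is not given. The values are filed as inhibition. About 68,000 compounds were tested under these conditions; 0.035% (about 24) showed 50% or more at least once.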
Mtb heat-shock: 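Assay on Mycobacterium tuberculosis, filed only as a heat shock assay from Cornell; the read-out is not stated. The concentration is filed as 10 mM, unlikely as a test dose, so the dose is not known. Higher reads as stronger inhibition (inferred: compounds with an IC50 in retests scored well above the rest). About 69,000 compounds were tested under these conditions; 1.4% (about 930) showed 50% or more at least once.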

| Compound | LdMetRS | Mtb heat-shock |
|---|---|---|
| `c1ccc(CO[C@@H]2CN(Cc3ccoc3)[C@@H]3COC[C@@H]32)nc1` | 8.786 | - |
| `COc1cc(-c2cc(=O)[nH]cn2)cc(OC)c1OC` | 6.068 | 11.68 |
| `CNC(=O)CN1CCOCC2(C1)CN(C(=O)C(C)C)CCO2` (stereo not drawn) | 12.97 | - |
| `O=C(O)C(F)(F)F.[H][C@@]12C[C@H](C(=O)NCCN(C)C)[C@@]([H])(CN(C(=O)NCc3ccccc3)C1)O2` | - | -28.43 |
| `CCOc1cccc(C(=O)Nc2ccn(CC)n2)c1` | 12.75 | 10.2 |
| `O=C1O[C@@H]2CN(c3ccc(Cl)cn3)C[C@@H]2N1CCc1ccc(F)cc1` | 6.452 | - |
| `CN(Cc1nnc(-c2ccco2)o1)Cc1nc2c(s1)CCCC2` | 20.3 | -27.45 |
| `O=C(O)C(F)(F)F.O=C(O)C(F)(F)F.O=C(O)C(F)(F)F.[H][C@@]12CN(Cc3cccnc3)CCO[C@]1([H])CN(Cc1ccccc1F)C2` | - | -29.85 |
| `CC(C)c1noc(C(C)N2CCN(Cc3noc(C4CC4)n3)CC2)n1` (stereo not drawn) | 18.82 | -13.96 |
| `COc1cccc(-c2nc(C)c(C(=O)N[C@H](CO)CC(C)C)s2)c1` | 15.45 | -12.06 |
| `Cc1nnc(CN2CCC(Oc3ccc(F)cc3)CC2)o1` | 8.179 | 0.7277 |
| `N#Cc1c(C2CC2)cc(-c2ccc(O)cc2)nc1N` | 19.26 | -0.0449 |
| `COC(=O)COn1c(SC(C)C)nc2ccccc2c1=O` | 5.831 | -6.193 |
| `CCn1nc(C)c2nc(C)nc(NC3CCCC3)c21` | 12.59 | 69.93 |
| `O=C(CCc1cc(O)no1)N1CCCC(COc2ccccc2F)C1` (stereo not drawn) | 6.452 | -10.25 |
| `CC(=O)N1CCC(NC(=O)Cc2csc(C(C)(C)C)n2)CC1` | 15.16 | 13.5 |
| `CN(C)C(=O)COCC1CN(Cc2ccoc2)Cc2nnn(C)c21` (stereo not drawn) | -1.961 | -13.05 |
| `COc1cc2c(cc1OC)S(=O)(=O)N(Cc1cc(C)on1)C2=O` | 13.73 | 22.76 |
| `CCSCC(C)NCc1nn(C)c2ccc(C)cc12` (stereo not drawn) | -0.7519 | -16.56 |
| `Cc1noc(C)c1CN1CC[C@@H]2O[C@H](COCC(C)C)CC[C@@H]21` | 13.36 | - |
| `Cc1ccccc1S(=O)(=O)N1CCc2c(ncnc2N(C)C)C1` | 6.87 | -17.84 |
| `CN(C)[C@H]1CCCCN(C(=O)c2cccc(N3CCS(=O)(=O)CC3)c2)C1` | 13.81 | -12.09 |
| `CN(C)c1ccccc1C(=O)N1C[C@@H](CN2CCOCC2)[C@@H](CO)C1` | 13.33 | 5.113 |
| `CN(Cc1cc2ccccc2o1)S(C)(=O)=O` | 4.11 | -24.63 |
| `O=C(Nc1ccccc1Oc1cccc(F)c1)C1CCS(=O)(=O)C1` (stereo not drawn) | 10.87 | 14.26 |
| `NC(=O)CN1CCCN(C(=O)Cc2ccc3c(c2)OCCO3)CC1` | 11.85 | -21.76 |
| `CN(C)C1CC2(CCN(C(=O)c3csnn3)CC2)c2ccccc21.O=C(O)C(F)(F)F` (stereo not drawn) | - | -18.78 |
| `CC[C@@H]1N(Cc2ccc(C)s2)CCC[C@]12CCC(=O)N2C` | 5.449 | - |
| `O=C(Cn1ccc2ccccc21)Nc1cc(N2CCOCC2)ncn1` | 11.51 | -15.96 |
| `CN(Cc1ccc(F)cc1)CC1(O)CCN(C(=O)c2ccccc2)C1` (stereo not drawn) | 13.36 | -2.724 |
| `CS(=O)(=O)NCC(=O)NC(Cc1ccccc1)C1CCCC1` (stereo not drawn) | 19.03 | 2.329 |
| `Cc1noc(C)c1CN(C)CC1CCCN1c1cccnn1` (stereo not drawn) | 11.81 | 4.158 |
| `CCn1cc(CN2CCC(C3CCN(C)CC3)CC2)cc1C#N` | 19.73 | -32.7 |
| `COC1CCN(c2cc(C(C)C)nc3ccnn23)C1` (stereo not drawn) | 12.64 | -5.715 |
| `Cc1ccccc1S(=O)(=O)NC(=O)CSc1ccc2c(c1)OCCO2` | 7.965 | -9.508 |
| `O=C(NC1CC1)C1CCCN(c2cccc(C(F)(F)F)n2)C1` (stereo not drawn) | 15.62 | 16.88 |
| `Cn1nc2c(c1NC(=O)c1cccs1)CCC2` | 13.35 | 10.23 |
| `O=C1CN(c2ccc(CNc3cncc(-n4cccn4)n3)cc2)CCN1` | 15.97 | 3.927 |
| `CCN1c2ccc(-c3cncn3CCCn3ccnc3C)cc2CC1C.Cl` (stereo not drawn) | - | 100.1 |
| `COc1cc2c(cc1CNC(Cc1cccs1)c1nccs1)OCO2` (stereo not drawn) | 1.553 | - |
| `CN1CCN(c2ncnc3c2CCN(S(=O)(=O)C2CC2)CC3)CC1.O=C(O)C(F)(F)F` | - | -0.6762 |
| `Cc1ccc(C(=O)N2CCSCC2)cc1NC(=O)NCCO` | 20.5 | 2.962 |
| `Cc1nc(-c2ccccc2F)sc1C(=O)N1CCN(C)CC1` | 5.185 | -0.9686 |
| `Cc1nnc(CN(C)C2CCN(Cc3nnc(C4CCC4)o3)C2)n1C` (stereo not drawn) | 16.11 | -4.936 |
| `[H][C@]12CN(C(=O)c3ccno3)CCN1C(=O)N(CCOC)C2` | - | 10.6 |
| `CCc1noc(CN(CCC2CCCCC2)CC(N)=O)n1` | 11.11 | 22.02 |
| `O=c1n(CCNCc2ccc3ccccc3c2)nc2ccccn12` | 23.21 | -17.08 |
| `O=C(c1cnc2ccccn12)N1CCCC(c2ccn[nH]2)C1` (stereo not drawn) | 13.62 | -35.23 |
| `CCS(=O)(=O)N1Cc2nccn2CC(COc2cccnc2)C1` (stereo not drawn) | 17.15 | -0.6779 |
| `Cc1ccc(CNCc2nccn2C)c(OCC2CC2)c1` | 6.504 | 39.25 |
| `[H][C@@]12C[C@@H](C)O[C@]1([H])CN(S(=O)(=O)c1ccc(F)cc1)C2` | - | -17.86 |
| `Cn1cc(C(=O)N2CCC(c3cc(CCO)n(C)n3)C2)cn1` (stereo not drawn) | 10.48 | 3.746 |
| `CCOCCSc1nnc(Cc2ccccc2F)o1` | 6.137 | 20.92 |
| `O=C(O)C(F)(F)F.O=C(O)C(F)(F)F.O=C(O)C(F)(F)F.[H][C@@]12C[C@H](C(=O)NCCN(C)C)N(C(C)C)[C@]1([H])CN(c1ncccn1)C2` | - | -14.45 |
| `CCN(Cc1csc(C)n1)c1cccc(CO)c1` | 9.358 | -22.94 |
| `O=C(c1ccncc1)N1CCC2(CC1)C(=O)Nc1ccccc12` | 9.278 | - |
| `CS(=O)(=O)CCC(=O)Nc1cc(F)ccc1OCC1CCCO1` (stereo not drawn) | 0.5682 | -9.795 |
| `O=C(NC1CC(=O)N(Cc2cccc(F)c2)C1)c1ccncc1` (stereo not drawn) | 12.68 | -0.7277 |
| `CC(C)NC(=O)c1ccc2nnc(C3CCN(S(C)(=O)=O)C3)n2c1` (stereo not drawn) | -1.875 | -18.67 |
| `CC(C)n1cnc(C2CN(C)c3ccc(C(=O)NC4CCCC4)cc32)n1` (stereo not drawn) | 14.18 | 20.97 |
| `Cc1cc(C)n(CC(C)NC(=O)C(C)(C)c2ccccc2F)n1` (stereo not drawn) | -1.099 | -27.53 |
| `O=C(O)C(F)(F)F.O=C(O)C(F)(F)F.[H][C@@]12C[C@H](C(=O)NC3CC3)CN(Cc3ccc4ccccc4n3)[C@]1([H])CCO2` | - | 6.403 |
| `CN(C)Cc1cncc2c1CCN(Cc1ccoc1)C2` | 9.819 | - |
| `Cc1nnc(C(C)N2CCCN(Cc3ccc(F)cc3)CC2)o1` (stereo not drawn) | 17.22 | -10.14 |
| `O=C(CCN1CCCC1c1cccs1)N1CCc2sccc2C1` (stereo not drawn) | 13.07 | 28.04 |
| `O=C(NCc1ccc(N2CC=CC2)cc1)Nc1nnc(C2CC2)s1` | 7.311 | -43.73 |
| `CC(C)NC(=O)N1CCN(C(=O)NC(C)C)CC2(CNC(=O)C2)C1` | 10.09 | 4.48 |
| `[H][C@@]12COC[C@]1([H])[C@@H](OCc1cccnc1)CN2C(=O)CNC(C)=O` | - | 3.154 |
| `O=C(c1ccnn1COc1ccc(Cl)cc1)N1CCSCC1` | 5.263 | 7.687 |
| `C[C@@H]1CN(Cc2cn(C)nc2-c2ccccc2F)C[C@H](C)O1` | 9.214 | -7.214 |
| `CCn1/c(=N/C(=O)CSCC(=O)Nc2nccs2)sc2ccccc21` | 7.194 | 5.827 |
| `COc1ccc(CN2CCc3nc4ccsc4c(=O)n3CC2)c(C)c1C` | 18.77 | -9.882 |
| `CCn1nc2c(cc1=O)CN(Cc1nc(-c3ccco3)no1)CC2` | 17.37 | -0.4906 |
| `N#CC1(NC(=O)COc2cc(Cl)cc(Cl)c2)CCSC1` (stereo not drawn) | 11.18 | 0.4881 |
| `CN(Cc1nccs1)c1nc(-c2ccccn2)nc2c1CCNCC2` | 18.58 | 47.94 |
| `COCCN1C(=O)CC[C@]12CC[C@@H](NCc1cccc(C)n1)CC2` | 2.422 | - |
| `CC(=O)Nc1ccc2nc(-c3nccn3CC(C)(C)CO)ccc2c1` | 3.559 | 9.975 |
| `Cc1cccc(N2CCCC3(C2)CN(c2nncs2)CCO3)c1` (stereo not drawn) | 6.383 | 1.811 |
| `[H][C@@]12CCN(c3nc(-c4ccncc4)nc4c3cnn4C)C[C@@]([H])(CC1)N2C` | - | -0.0303 |
| `CN(C)CCN(Cc1ccc(Cl)cc1)C(=O)c1ccn(C)c(=O)c1` | 15.97 | 15.98 |
| `O=C1[C@H]2CC[C@H](CN(S(=O)(=O)c3ccccc3)C2)N1Cc1cscn1` | 3.5 | - |
| `[H][C@]12CC[C@]([H])(CN(c3ncccc3F)C1)N(CC=C(C)C)C2=O` | - | -11.72 |
| `CCn1nc(CNC(C)(C)CO)c(-c2ccccc2)n1` | -30.9 | 4.327 |
| `COc1cc2cc(C)c(SCCN3CCCCC3)nc2cc1OC.Cl` | - | 8.064 |

For reference, 8 entries once more:

Compound,LdMetRS,Mtb heat-shock
COc1cc2cc(C)c(SCCN3CCCCC3)nc2cc1OC.Cl,-,8.064
O=C(CCN1CCCC1c1cccs1)N1CCc2sccc2C1 (stereo not drawn),13.07,28.04
CN1CCN(c2ncnc3c2CCN(S(=O)(=O)C2CC2)CC3)CC1.O=C(O)C(F)(F)F,-,-0.6762
CS(=O)(=O)NCC(=O)NC(Cc1ccccc1)C1CCCC1 (stereo not drawn),19.03,2.329
Cc1noc(C)c1CN1CC[C@@H]2O[C@H](COCC(C)C)CC[C@@H]21,13.36,-
CCOCCSc1nnc(Cc2ccccc2F)o1,6.137,20.92
O=C(NC1CC(=O)N(Cc2cccc(F)c2)C1)c1ccncc1 (stereo not drawn),12.68,-0.7277
CC(C)c1noc(C(C)N2CCN(Cc3noc(C4CC4)n3)CC2)n1 (stereo not drawn),18.82,-13.96

Source: ChEMBL document CHEMBL3988442, “University of Dundee, Small-Polar-MMV Screening Library” (2021).